# PubChem BioAssay AID1259254, NCATS | 2017
# Test: 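Gene knock-downs that lead to re-replication, shown by excess G2 DNA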 (primary screen)
# Cells: human HCT116 colorectal cancer cells
# Reagents: single siRNA against human genes
# Time to read-out: 3 days
# Detection: 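Imaged Hoechst DNA stain sorts each cell into a cycle phase by DNA amount; per plate, G2 fraction set to 0% for non-targeting and 100% for GMNN siRNA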
# Reading the numbers: G2 robust z-score and G2 cells, % of GMNN control: higher = more G2 cells, more excess DNA replication; raw share of cells in G2: higher = larger share of cells with G2 DNA content
# Hit rule: 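An siRNA counts as active if its G2 robust z-score lies at least 5 MADs above the screen median; here such calls match roughly 38% of GMNN control or more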
# The deposit covers about 59,000 reagents; this is a random part of them. About 1,550 of them (2.6%) count as active. 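G2 share is only a proxy for re-replication; each gene was hit by three separate siRNAs, and active genes were retested.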 The raw values are shown without normalisation. A number with no mark means an inactive call. The numbers tell different reagents against one gene apart. The record does not give: the amount of reagent.
Target gene,reagent no.,G2 robust z-score,"G2 cells, % of GMNN control",raw share of cells in G2 (%)
JARID2 (jumonji and AT-rich interaction domain containing 2),1,-0.63,-1.46,2.88
JARID2 (jumonji and AT-rich interaction domain containing 2),2,-0.0601,2.54,6.04
JARID2 (jumonji and AT-rich interaction domain containing 2),3,0.429,5.99,5.28
PPP1R14B (protein phosphatase 1 regulatory inhibitor subunit 14B),1,1.27,11.9,7.89
PPP1R14B (protein phosphatase 1 regulatory inhibitor subunit 14B),2,5.06 (active),38.6,15.1
PPP1R14B (protein phosphatase 1 regulatory inhibitor subunit 14B),3,-0.65,-1.6,4.27
"ERCC8 (ERCC excision repair 8, CSA ubiquitin ligase complex subunit)",1,2.81,22.7,16
"ERCC8 (ERCC excision repair 8, CSA ubiquitin ligase complex subunit)",2,-0.346,0.531,4.28
"ERCC8 (ERCC excision repair 8, CSA ubiquitin ligase complex subunit)",3,0.0359,3.22,4.78
CLGN (calmegin),1,0.603,7.21,6.32
CLGN (calmegin),2,0.305,5.11,7.24
CLGN (calmegin),3,0.0647,3.42,4.35
ARFGAP1 (ARF GTPase activating protein 1),1,-0.625,-1.43,5.8
ARFGAP1 (ARF GTPase activating protein 1),2,-1.12,-4.88,2.69
ARFGAP1 (ARF GTPase activating protein 1),3,1.18,11.3,9.03
ELOF1 (elongation factor 1),1,-0.0567,2.57,3.18
ELOF1 (elongation factor 1),2,0.2,4.37,5.56
ELOF1 (elongation factor 1),3,1.17,11.2,6.77
PAXX (PAXX non-homologous end joining factor),1,-0.35,0.508,3.24
PAXX (PAXX non-homologous end joining factor),2,-1.2,-5.45,1.61
PAXX (PAXX non-homologous end joining factor),3,0.279,4.93,5.44
PNMA6A (PNMA family member 6A),1,0.102,3.68,5.65
PNMA6A (PNMA family member 6A),2,-0.0708,2.47,3.77
PNMA6A (PNMA family member 6A),3,0.419,5.92,4.8
ZNF619 (zinc finger protein 619),1,5.14 (active),39.1,16.6
ZNF619 (zinc finger protein 619),2,-0.294,0.896,3.48
ZNF619 (zinc finger protein 619),3,2.76,22.4,11.4
IL22 (interleukin 22),1,0.0947,3.63,5.24
IL22 (interleukin 22),2,-0.841,-2.95,3.43
IL22 (interleukin 22),3,-1.03,-4.27,1.91
DGCR8 (DGCR8 microprocessor complex subunit),1,-0.903,-3.39,2.5
DGCR8 (DGCR8 microprocessor complex subunit),2,0.917,9.42,7.72
DGCR8 (DGCR8 microprocessor complex subunit),3,-0.21,1.49,6.63
CNOT11 (CCR4-NOT transcription complex subunit 11),1,-0.393,0.203,4.6
CNOT11 (CCR4-NOT transcription complex subunit 11),2,0.858,9,7.87
CNOT11 (CCR4-NOT transcription complex subunit 11),3,0.21,4.45,4.56
DPEP1 (dipeptidase 1),1,-0.124,2.1,6.29
DPEP1 (dipeptidase 1),2,-1.19,-5.37,3.01
DPEP1 (dipeptidase 1),3,-0.878,-3.21,2.71
CSMD2 (CUB and Sushi multiple domains 2),1,-0.614,-1.35,3.55
CSMD2 (CUB and Sushi multiple domains 2),2,1.61,14.3,7.59
CSMD2 (CUB and Sushi multiple domains 2),3,0.0223,3.12,2.73
RPL26P32 (ribosomal protein L26 pseudogene 32),1,3.47,27.4,13.8
RPL26P32 (ribosomal protein L26 pseudogene 32),2,4.61,35.4,17.6
RPL26P32 (ribosomal protein L26 pseudogene 32),3,2.2,18.5,12.5
AP1AR,1,-0.592,-1.2,4.06
AP1AR,2,4.9,37.5,19.7
AP1AR,3,0.966,9.77,6.25
ZBTB21 (zinc finger and BTB domain containing 21),1,-0.423,-0.00731,2.79
ZBTB21 (zinc finger and BTB domain containing 21),2,-0.0493,2.62,7.09
ZBTB21 (zinc finger and BTB domain containing 21),3,0.206,4.42,5.02
BLMH (bleomycin hydrolase),1,8.16 (active),60.4,26.6
BLMH (bleomycin hydrolase),2,0.0744,3.49,6.14
BLMH (bleomycin hydrolase),3,-0.711,-2.03,3.15
MSANTD3 (Myb/SANT DNA binding domain containing 3),1,0.677,7.73,7.37
MSANTD3 (Myb/SANT DNA binding domain containing 3),2,0.681,7.76,5.43
MSANTD3 (Myb/SANT DNA binding domain containing 3),3,-0.724,-2.12,2.25
MOV10 (Mov10 RNA helicase),1,-0.35,0.507,3.36
MOV10 (Mov10 RNA helicase),2,-0.0377,2.7,6.54
MOV10 (Mov10 RNA helicase),3,7.41 (active),55.1,26.7
BNC1 (basonuclin zinc finger protein 1),1,2.36,19.6,11.4
BNC1 (basonuclin zinc finger protein 1),2,2.3,19.2,11.9
BNC1 (basonuclin zinc finger protein 1),3,1.79,15.5,9.78
EPN3 (epsin 3),1,-0.361,0.426,2.94
EPN3 (epsin 3),2,-0.965,-3.82,4.18
EPN3 (epsin 3),3,-0.446,-0.17,3.58
CDC42BPB (CDC42 binding protein kinase beta),1,-0.0681,2.49,6.36
CDC42BPB (CDC42 binding protein kinase beta),2,0.0564,3.36,6.41
CDC42BPB (CDC42 binding protein kinase beta),3,4.57,35.1,14.9

Laid out differently: results already given.
AP1AR #3: G2 robust z-score = 0.966; G2 cells, % of GMNN control = 9.77; raw share of cells in G2 (%) = 6.25
ZBTB21 (zinc finger and BTB domain containing 21) #1: G2 robust z-score = -0.423; G2 cells, % of GMNN control = -0.00731; raw share of cells in G2 (%) = 2.79
ZBTB21 (zinc finger and BTB domain containing 21) #2: G2 robust z-score = -0.0493; G2 cells, % of GMNN control = 2.62; raw share of cells in G2 (%) = 7.09
ZBTB21 (zinc finger and BTB domain containing 21) #3: G2 robust z-score = 0.206; G2 cells, % of GMNN control = 4.42; raw share of cells in G2 (%) = 5.02
BLMH (bleomycin hydrolase) #1: G2 robust z-score = 8.16 (active); G2 cells, % of GMNN control = 60.4; raw share of cells in G2 (%) = 26.6
BLMH (bleomycin hydrolase) #2: G2 robust z-score = 0.0744; G2 cells, % of GMNN control = 3.49; raw share of cells in G2 (%) = 6.14
BLMH (bleomycin hydrolase) #3: G2 robust z-score = -0.711; G2 cells, % of GMNN control = -2.03; raw share of cells in G2 (%) = 3.15
MSANTD3 (Myb/SANT DNA binding domain containing 3) #1: G2 robust z-score = 0.677; G2 cells, % of GMNN control = 7.73; raw share of cells in G2 (%) = 7.37
MSANTD3 (Myb/SANT DNA binding domain containing 3) #2: G2 robust z-score = 0.681; G2 cells, % of GMNN control = 7.76; raw share of cells in G2 (%) = 5.43
